Measurements from paper PMC10319725, “A mechanical-coupling mechanism in OSCA/TMEM63 channel mechanosensitivity” (Nature Communications, 2023).
These are yes or no findings as the source states them, for the method shown. For some assays here: Where a sequence is shown, tags or fusion partners need not be part of it.

Columns and labels:
hTMEM63A-CGFP (human) = hTMEM63A-CGFP (human) (UniProt O94886); test: SEC; fluorescence-detection SEC (FSEC) of detergent-solubilised Expi293F cells (1% LMNG, 0.1% CHS; also DDM or GDN), Superose 6 increase 5/150 in TBS (20 mM Tris pH 8.0, 150 mM NaCl) with 10 uM LMNG, GFP fluorescence detected
[1] = target: hTMEM63A in detergent (human) (UniProt O94886); test: cryo-EM structure; purified protein in detergent (extracted with LMNG-CHS, SEC in TBS with 0.03% digitonin); both purified

Row | Binder | binding (hTMEM63A-CGFP (human)) | binding [1]
1 | hTMEM63A-CGFP (protein, UniProt O94886 1-807) MMDSPFLELWQSKAVSIREQLGLGDRPNDSYCYNSAKNSTVLQGVTFGGIPTVLLIDVSCFLFLILVFSIIRRRFWDYGRIALVSEADSESRFQRLSSTSSSGQQDFENELGCCPWLTAIFRLHDDQILEWCGEDAIHYLSFQRHIIFLLVVVSFLSLCVILPVNLSGDLLDKDPYSFGRTTIANLQTDNDLLWLHTIFAVIYLFLTVGFMRHHTQSIKYKEENLVRRTLFITGLPRDARKETVESHFRDAYPTCEVVDVQLCYNVAKLIYLCKEKKKTEKSLTYYTNLQVKTGQRTLINPKPCGQFCCCEVLGCEWEDAISYYTRMKDRLLERITEEERHVQDQPLGMAFVTFQEKSMATYILKDFNACKCQSLQCKGEPQPSSHSRELYTSKWTVTFAADPEDICWKNLSIQGLRWWLQWLGINFTLFLGLFFLTTPSIILSTMDKFNVTKPIHALNNPIISQFFPTLLLWSFSALLPSIVYYSTLLESHWTKSGENQIMMTKVYIFLIFMVLILPSLGLTSLDFFFRWLFDKTSSEASIRLECVFLPDQGAFFVNYVIASAFIGNGMELLRLPGLILYTFRMIMAKTAADRRNVKQNQAFQYEFGAMYAWMLCVFTVIVAYSITCPIIAPFGLIYILLKHMVDRHNLYFVYLPAKLEKGIHFAAVNQALAAPILCLFWLYFFSFLRLGMKAPATLFTFLVLLLTILVCLAHTCFGCFKHLSPLNYKTEEPASDKGSEAEAHMPPPFTPYVPRILNGLASERTALSPQQQQQQTYGAIHNISGTIPGQCLAQSATGSVAAAPQEA | no binding | –
2 | hTMEM63A in detergent (protein, UniProt O94886 1-807) MMDSPFLELWQSKAVSIREQLGLGDRPNDSYCYNSAKNSTVLQGVTFGGIPTVLLIDVSCFLFLILVFSIIRRRFWDYGRIALVSEADSESRFQRLSSTSSSGQQDFENELGCCPWLTAIFRLHDDQILEWCGEDAIHYLSFQRHIIFLLVVVSFLSLCVILPVNLSGDLLDKDPYSFGRTTIANLQTDNDLLWLHTIFAVIYLFLTVGFMRHHTQSIKYKEENLVRRTLFITGLPRDARKETVESHFRDAYPTCEVVDVQLCYNVAKLIYLCKEKKKTEKSLTYYTNLQVKTGQRTLINPKPCGQFCCCEVLGCEWEDAISYYTRMKDRLLERITEEERHVQDQPLGMAFVTFQEKSMATYILKDFNACKCQSLQCKGEPQPSSHSRELYTSKWTVTFAADPEDICWKNLSIQGLRWWLQWLGINFTLFLGLFFLTTPSIILSTMDKFNVTKPIHALNNPIISQFFPTLLLWSFSALLPSIVYYSTLLESHWTKSGENQIMMTKVYIFLIFMVLILPSLGLTSLDFFFRWLFDKTSSEASIRLECVFLPDQGAFFVNYVIASAFIGNGMELLRLPGLILYTFRMIMAKTAADRRNVKQNQAFQYEFGAMYAWMLCVFTVIVAYSITCPIIAPFGLIYILLKHMVDRHNLYFVYLPAKLEKGIHFAAVNQALAAPILCLFWLYFFSFLRLGMKAPATLFTFLVLLLTILVCLAHTCFGCFKHLSPLNYKTEEPASDKGSEAEAHMPPPFTPYVPRILNGLASERTALSPQQQQQQTYGAIHNISGTIPGQCLAQSATGSVAAAPQEA | – | no binding
